## Library screen at single concentrations

By UniProt entry, the sequences of proteins in these tests, tags left out. Residues count along the entry.
UniProt P9WPC5, whole entry: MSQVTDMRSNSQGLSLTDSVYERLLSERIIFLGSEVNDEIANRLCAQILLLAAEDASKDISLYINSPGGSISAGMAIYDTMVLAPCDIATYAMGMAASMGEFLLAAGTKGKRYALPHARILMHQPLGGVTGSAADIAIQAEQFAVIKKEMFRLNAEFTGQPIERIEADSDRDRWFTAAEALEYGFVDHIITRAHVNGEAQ
UniProt P9WPC3, whole entry partner: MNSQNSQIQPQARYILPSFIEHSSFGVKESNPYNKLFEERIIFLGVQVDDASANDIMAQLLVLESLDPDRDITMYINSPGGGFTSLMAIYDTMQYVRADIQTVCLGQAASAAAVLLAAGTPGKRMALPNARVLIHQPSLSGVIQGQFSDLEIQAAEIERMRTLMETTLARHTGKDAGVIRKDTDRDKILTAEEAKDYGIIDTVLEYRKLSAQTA
UniProt P9WNZ1, whole entry: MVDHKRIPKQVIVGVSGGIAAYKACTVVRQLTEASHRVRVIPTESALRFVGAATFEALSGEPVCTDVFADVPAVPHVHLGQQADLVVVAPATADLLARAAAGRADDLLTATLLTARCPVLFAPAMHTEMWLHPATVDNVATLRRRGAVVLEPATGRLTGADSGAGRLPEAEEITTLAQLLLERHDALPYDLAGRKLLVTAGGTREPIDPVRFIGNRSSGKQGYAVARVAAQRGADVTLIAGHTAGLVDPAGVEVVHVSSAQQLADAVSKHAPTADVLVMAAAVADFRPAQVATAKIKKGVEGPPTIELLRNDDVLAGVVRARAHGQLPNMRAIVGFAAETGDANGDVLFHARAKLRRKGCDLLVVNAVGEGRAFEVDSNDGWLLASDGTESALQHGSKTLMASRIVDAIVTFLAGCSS
UniProt Q8IDJ8, 1-583: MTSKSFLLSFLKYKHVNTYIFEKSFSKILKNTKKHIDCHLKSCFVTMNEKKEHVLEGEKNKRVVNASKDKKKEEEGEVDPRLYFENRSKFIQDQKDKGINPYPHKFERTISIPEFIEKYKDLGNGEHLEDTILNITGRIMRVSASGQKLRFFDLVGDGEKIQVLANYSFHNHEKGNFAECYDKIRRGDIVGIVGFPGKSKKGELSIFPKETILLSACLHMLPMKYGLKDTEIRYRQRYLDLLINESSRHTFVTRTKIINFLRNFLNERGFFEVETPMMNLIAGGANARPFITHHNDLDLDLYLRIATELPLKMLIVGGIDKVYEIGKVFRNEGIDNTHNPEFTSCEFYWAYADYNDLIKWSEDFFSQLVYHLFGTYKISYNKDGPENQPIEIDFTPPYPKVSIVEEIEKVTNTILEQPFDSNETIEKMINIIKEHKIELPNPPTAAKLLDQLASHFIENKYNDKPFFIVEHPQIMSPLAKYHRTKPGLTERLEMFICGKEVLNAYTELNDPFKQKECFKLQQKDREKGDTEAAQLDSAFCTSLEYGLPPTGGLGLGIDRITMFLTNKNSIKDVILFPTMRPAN

Source: ChEMBL document CHEMBL3988442, “University of Dundee, Small-Polar-MMV Screening Library” (2021).

Values are the deposited “Percent Effect”, in %.
The record does not define 0% and 100%; most values in the screen are far below 50% and negative numbers occur (in some assays of this library far below -100).
Compounds were drawn at random from those tested, without regard to their results.
A dash means the value is not listed here; it may have been measured.

A: 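Protease assay of ClpP1P2, read by the AMC dye that it sets free. Target: ClpP1P2, Mycobacterium tuberculosis (UniProt P9WPC5 and UniProt P9WPC3). Compounds at 50 µM. Higher reads as stronger inhibition, judged from the few compounds that gave an IC50. Most other retested compounds had strongly negative values. Of about 69,000 compounds tested this way, about 10 (0.015%) reached 50% or more in at least one test.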
B: 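Enzyme assay of CoaBC with a phosphate dye (Biomol Green) read at 650 nm. Target: Coenzyme A biosynthesis protein CoaBC, Mycobacterium tuberculosis (UniProt P9WNZ1). Tested at 30 µM. Direction is inferred from only a few compounds that gave an IC50; most scored high, so higher reads as stronger inhibition. Most strong results did not repeat in a second test. Of about 67,000 compounds tested this way, about 40 (0.06%) reached 50% or more in at least one test.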
C: 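Enzyme assay of the cytosolic lysyl-tRNA synthetase in 384-well plates, read by luminescence. Target: Lysine-tRNA ligase, Plasmodium falciparum 3D7 (UniProt Q8IDJ8). Concentration: 30 µM. Direction is inferred from only a few compounds that gave an IC50; most scored high, so higher reads as stronger inhibition. Of about 69,000 compounds tested this way, about 49 (0.071%) reached 50% or more in at least one test.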

compound	A	B	C
OC1(CN2CCCC2)CCCN(Cc2c[nH]c(CC3CCCC3)n2)C1 (stereo not shown)	-0.8828%	-	2.181%
N#Cc1cn[nH]c1NCc1cc(Cl)cc(Cl)c1O	-5.443%	4.126%	-1.098%
CN(C)[C@@H]1CCN(C(=O)Cc2ccc(F)cc2)[C@H]1Cc1cnn(C)c1	17.77%	-5.44%	4.755%
CC(C)n1ncc2c1NC(=O)CC21C(=O)Nc2c(Br)cc(Cl)cc21 (stereo not shown)	-6.299%	1.01%	4.631%
Cn1nc(CNC(=O)CC#N)c2c1CN(CC1CC1)CC2	-7.973%	0.8333%	2.518%
O=C(N1CCOCC1)N1CCCC(c2ncncc2-c2ccncc2)C1 (stereo not shown)	-8.556%	-4.833%	1.012%
Cn1cc(NC(=O)CNC(=O)N2CCN(c3ccc(Cl)cc3)CC2)cn1	2.094%	1.887%	-0.9428%
O=C(NCCN1CCCC1)c1nc2c(o1)CN(c1ncccn1)C2	-6.824%	-	-1.453%
Cc1ncsc1CN1C[C@@H]2CN(Cc3cccnc3)CCO[C@@H]2C1	-7.526%	2.764%	5.884%
CC(C1CCN(Cc2ccc(OC(F)F)cc2)CC1)N1CCOCC1 (stereo not shown)	1.22%	-1.518%	-3.751%
COc1cccc(Cn2cc(N3C(=O)[C@H]4CCCC[C@H]4C3=O)cn2)c1	-16.54%	-1.263%	-7.46%
C=C(C)COc1cccc(C(=O)N2CCC3(CC2)CN(C)CCN3C)c1	-3.572%	5.2%	6.13%
CN(Cc1cc(F)cc2cccnc12)CC1CCN(CCO)CC1	-7.171%	-6.522%	-4.669%
Cc1ccc(Oc2ncccc2CNC(=O)NC2CCCCC2)cn1	-8.805%	10.73%	-1.479%
CCNC(=O)c1ccc(NC(=O)N(C)Cc2cccn2C)c(C)c1	10.17%	6.884%	3.844%
O=C(Nc1cccc(C2SCCS2)c1)C1CCCN1c1nccs1 (stereo not shown)	-11.37%	2.895%	-0.1138%
CC1CCCN(CCNC(=O)c2ccn(-c3ccccc3)n2)C1 (stereo not shown)	1.011%	0.7229%	3.095%
O=C([C@H]1CCCO1)N1CCC2(CCCN(CCOc3ccccc3)C2)C1 (stereo partly shown)	18.02%	5.176%	-0.4498%
Cc1n[nH]c(C)c1Sc1ccccc1NC(=O)N1CCOCC1	-8.061%	-1.72%	1.133%
Cc1cccc(N2CCC3(CCCN3Cc3c(C)nn(C)c3C)CC2)n1	-1.737%	5.909%	3.635%
O=C1NCCCC12CCN(S(=O)(=O)N1CCOCC1)C2 (stereo not shown)	-0.2401%	-2.302%	6.738%
CN1C(=O)C(C)(C)COc2cc(NS(=O)(=O)c3ccccc3)ccc21	5.995%	2.772%	-1.032%
CC(=O)c1cccc(OCc2cc(C(=O)N3CCCCO3)n[nH]2)c1	-9.005%	0.7634%	7.526%
COc1ccc(C(=O)C2CCCN(c3cc(C#N)ccn3)C2)cc1OC (stereo not shown)	-20.4%	-0.6165%	-1.735%

Repeated from the top, 2 entries:

{"compound": "OC1(CN2CCCC2)CCCN(Cc2c[nH]c(CC3CCCC3)n2)C1", "stereo": "stereo not shown", "A": -0.8828, "C": 2.181}
{"compound": "N#Cc1cn[nH]c1NCc1cc(Cl)cc(Cl)c1O", "A": -5.443, "B": 4.126, "C": -1.098}